# In patent US20250115668A1:
# No constants are given. Whether binding was seen depends on the method and setting. A result given as binding can be weak or reduced; the word gives no strength.
# Key:
# [1] = biological target: human OX40 on hPBMC T cells (CD3+CD8+ / CD3+CD4+) (human); assay: flow cytometry, Log(MFI), gated on CD3+CD4+ T cells of human PBMCs stimulated 72 h with plate-bound anti-CD3/anti-CD28; no isotype control shown
# [2] = biological target: human OX40 on hPBMC T cells (CD3+CD8+ / CD3+CD4+) (human); assay: flow cytometry, Log(MFI), gated on CD3+CD8+ T cells of human PBMCs stimulated 72 h with plate-bound anti-CD3/anti-CD28; no isotype control shown
binder,measurement,setting,value
"OX-H7-IgG1 (antibody, V domains shown) VH: QITLKESGPTLVKPAQTLTLTCTFSGFSLSTSGVGVGWIRQPPGKALEWLALIYWDDDKLYSPSLKSRLTITKDTSKNQVVLAMTNMDPVDTATYYCAHSQLGRDDYWGQGTLVTVSS VL: EIVLTQSPATLCLSPGERATLSCRASQSVSNYLAWYQQKPGQAPRLLIYAASSRATGIPARFSGSGSGTDFTLTISTLEPEDFAVYYCQQRRDWPPTFGQGTKVEIK",binding,[1],binds
same,binding,[2],binds
